This assay has as its target T1, NRPE1 Δ1251-1976, C-terminal HA tag (full CTD deletion) (Arabidopsis thaliana (ecotype Col-0)) (UniProt Q5D869).
T1 sequence: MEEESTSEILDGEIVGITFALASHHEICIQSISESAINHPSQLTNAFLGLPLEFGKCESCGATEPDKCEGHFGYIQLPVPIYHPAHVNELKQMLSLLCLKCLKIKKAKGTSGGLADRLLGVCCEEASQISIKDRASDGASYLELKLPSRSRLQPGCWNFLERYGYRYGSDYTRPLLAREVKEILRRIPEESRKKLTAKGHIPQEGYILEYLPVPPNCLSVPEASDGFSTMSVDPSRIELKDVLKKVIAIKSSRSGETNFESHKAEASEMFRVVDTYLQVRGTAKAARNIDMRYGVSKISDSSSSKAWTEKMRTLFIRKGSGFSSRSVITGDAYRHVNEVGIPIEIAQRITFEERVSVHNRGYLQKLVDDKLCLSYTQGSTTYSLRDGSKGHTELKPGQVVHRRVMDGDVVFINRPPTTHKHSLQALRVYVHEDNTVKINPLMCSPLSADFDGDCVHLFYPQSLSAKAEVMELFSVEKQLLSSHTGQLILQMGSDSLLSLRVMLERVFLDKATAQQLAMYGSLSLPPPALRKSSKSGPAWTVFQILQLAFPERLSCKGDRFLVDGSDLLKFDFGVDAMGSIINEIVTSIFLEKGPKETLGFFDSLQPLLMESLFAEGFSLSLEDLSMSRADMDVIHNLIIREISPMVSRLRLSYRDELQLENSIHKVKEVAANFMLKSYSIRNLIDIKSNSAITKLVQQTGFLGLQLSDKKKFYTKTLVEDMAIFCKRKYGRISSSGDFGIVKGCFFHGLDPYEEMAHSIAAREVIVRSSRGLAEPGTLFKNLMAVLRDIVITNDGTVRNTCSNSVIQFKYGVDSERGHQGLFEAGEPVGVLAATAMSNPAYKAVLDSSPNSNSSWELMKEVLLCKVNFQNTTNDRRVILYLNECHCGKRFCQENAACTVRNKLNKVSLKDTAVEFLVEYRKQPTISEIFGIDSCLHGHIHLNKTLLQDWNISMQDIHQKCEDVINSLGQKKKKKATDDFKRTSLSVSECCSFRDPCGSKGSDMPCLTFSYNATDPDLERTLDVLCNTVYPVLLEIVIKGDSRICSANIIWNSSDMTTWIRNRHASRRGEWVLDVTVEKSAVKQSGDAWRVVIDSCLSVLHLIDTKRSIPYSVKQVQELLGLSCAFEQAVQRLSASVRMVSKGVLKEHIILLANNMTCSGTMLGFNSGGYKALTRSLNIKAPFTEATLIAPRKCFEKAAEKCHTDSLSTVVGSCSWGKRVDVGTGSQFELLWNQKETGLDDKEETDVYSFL
In words: co-IP.

No constants are given. Whether binding was seen depends on the method and setting. Binding seen in cells or lysates may run through a third protein. Some entries that bind do so weakly or less than the wild type. Sequences can lack the tags named with a protein.

Consider one molecule from doi:10.1101/111831.

B1: NRP(B/D/E)11, 11th subunit common to Pols II, IV and V (protein, UniProt Q38859 1-116)
chain: MNAPERYERFVVPEGTKKVSYDRDTKIINAASFTVEREDHTIGNIVRMQLHRDENVLFAGYQLPHPLKYKIIVRIHTTSQSSPMQAYNQAINDLDKELDYLKNQFEAEVAKFSNQF
Take B1: the binding result is “binds”.
